Results: US9828389B2, “Tetrazolinone compounds and their use as pesticides” (SUMITOMO CHEMICAL COMPANY, LIMITED, priority 2012, dated 2017)
Like-named read-outs stand apart in the source and are kept apart here. Some entries share one result that the patent states for a list of compounds.

Columns and labels:
[1] = system: wheat rust fungi (Puccinia recondita); assay: Wheat rust control test, foliar spray on wheat; format: in vivo; settings: wheat (cv; Shirogane), inoculated after 5 days, observed after 1+8 days
Experimental: The spores of wheat rust fungi (Puccinia recondita) were sprinkling-inoculated. After inoculation, the plants were placed under a dark and humid condition at 23° C. for 1 day and were then cultivated at 20° C. under lighting for 8 days and a lesion area was observed.

[2] = system: rice blast fungi (Magnaporthe grisea); format: in vivo; settings: rice (cv; Nipponbare), 6 days in contact with infected seedlings

SMILES	lesion area compared to the lesion area in untreated plants ([1]; foliar spray 200 ppm)	lesion area compared to the lesion area in untreated plants ([2]; foliar spray 200 ppm)	lesion area compared to the lesion area in untreated plants ([1]; foliar spray 500 ppm)	lesion area compared to the lesion area in untreated plants ([2]; foliar spray 500 ppm)
COc1cccc(-n2nnn(C)c2=O)c1COc1ccc(-c2nn(C)cc2C)cc1Cl [Present compound 154, 1-{3-methoxy-2-[2-chloro-4-(1,4-dimethyl-1H-pyrazol-3-yl)-phenoxymethyl]-phenyl}-4-methyl-1,4-dihydrotetrazole-5-one]	≤ 30%	≤ 30%	–	–
Cc1cn(C)nc1-c1ccc(OCc2c(Cl)cccc2-n2nnn(C)c2=O)c(Cl)c1 [Present compound 155, 1-{3-chloro-2-[2-chloro-4-(1,4-dimethyl-1H-pyrazol-3-yl)-phenoxymethyl]-phenyl}-4-methyl-1,4-dihydrotetrazole-5-one]	≤ 30%	≤ 30%	–	–
Cc1cc(-c2nn(C)cc2C)ccc1OCc1c(C)cccc1-n1nnn(C)c1=O [Present compound 156, 1-{3-methyl-2-[2-methyl-4-(1,4-dimethyl-1H-pyrazol-3-yl)-phenoxymethyl]-phenyl}-4-methyl-1,4-dihydrotetrazole-5-one]	–	–	≤ 30%	≤ 30%
COc1cccc(-n2nnn(C)c2=O)c1COc1ccc(-c2nn(C)cc2C)cc1C [Present compound 157, 1-{3-methoxy-2-[2-methyl-4-(1,4-dimethyl-1H-pyrazol-3-yl)-phenoxymethyl]-phenyl}-4-methyl-1,4-dihydrotetrazole-5-one]	–	–	≤ 30%	≤ 30%
CCc1cccc(-n2nnn(C)c2=O)c1COc1ccc(-c2nn(C)cc2C)cc1C [Present compound 159, 1-{3-ethyl-2-[2-methyl-4-(1,4-dimethyl-1H-pyrazol-3-yl)-phenoxymethyl]-phenyl}-4-methyl-1,4-dihydrotetrazole-5-one]	–	–	≤ 30%	≤ 30%
Cc1cc(-c2nn(C)cc2C)ccc1OCc1c(Br)cccc1-n1nnn(C)c1=O [Present compound 160, 1-{3-bromo-2-[2-methyl-4-(1,4-dimethyl-1H-pyrazol-3-yl)-phenoxymethyl]-phenyl}-4-methyl-1,4-dihydrotetrazole-5-one]	–	–	≤ 30%	≤ 30%
Cc1cc(-c2nn(C)c(Cl)c2C)ccc1OCc1c(C)cccc1-n1nnn(C)c1=O [Present compound 169, 1-{3-methyl-2-[2-methyl-4-(5-chloro-1,4-dimethyl-1H-pyrazol-3-yl)-phenoxymethyl]-phenyl}-4-methyl-1,4-dihydrotetrazole-5-one]	≤ 30%	≤ 30%	≤ 30%	–
Cc1cc(C(=O)C2CC2)ccc1OCc1c(C)cccc1-n1nnn(C)c1=O [Present compound 181, 1-[2-(4-cyclopropanecarbonyl-2-methyl-phenoxymethyl]-3-methyl-phenyl)-4-methyl-1,4-dihydrotetrazole-5-one]	≤ 30%	–	–	≤ 30%
Cc1cc(C(=O)CC(C)(C)C)ccc1OCc1c(C)cccc1-n1nnn(C)c1=O [Present compound 182, 1-{2-[4-(3,3-dimethyl-butyryl)-2-methyl-phenoxymethyl]-3-methyl-phenyl}-4-methyl-1,4-dihydrotetrazole-5-one]	≤ 30%	≤ 30%	–	–
Cc1cc(-c2nn(C)c(C)c2Cl)ccc1OCc1c(C)cccc1-n1nnn(C)c1=O [Present compound 190, 1-{3-methyl-2-[2-methyl-4-(4-chloro-1,5-dimethyl-1H-pyrazol-3-yl)-phenoxymethyl]-phenyl}-4-methyl-1,4-dihydrotetrazole-5-one]	≤ 30%	≤ 30%	≤ 30%	–
COc1cccc(-n2nnn(C)c2=O)c1COc1ccc(-c2nn(C)c(C)c2Cl)cc1C [Present compound 191, 1-{3-methoxy-2-[2-methyl-4-(4-chloro-1,5-dimethyl-1H-pyrazol-3-yl)-phenoxymethyl]-phenyl}-4-methyl-1,4-dihydrotetrazole-5-one]	≤ 30%	≤ 30%	≤ 30%	–
Cc1cc(-c2cc(C(F)(F)F)n(C)n2)ccc1OCc1c(C)cccc1-n1nnn(C)c1=O [Present compound 192, 1-{3-methyl-2-[2-methyl-4-(1-methyl-5-trifluoromethyl-1H-pyrazol-3-yl)-phenoxymethyl]-phenyl}-4-methyl-1,4-dihydrotetrazole-5-one]	≤ 30%	≤ 30%	≤ 30%	–
COc1cccc(-n2nnn(C)c2=O)c1COc1ccc(-c2cc(C(F)(F)F)n(C)n2)cc1C [Present compound 194, 1-{3-methoxy-2-[2-methyl-4-(1-methyl-5-trifluoromethyl-1H-pyrazol-3-yl)-phenoxymethyl]-phenyl}-4-methyl-1,4-dihydrotetrazole-5-one]	≤ 30%	≤ 30%	≤ 30%	–
Cc1cc(-c2cc(C(F)(F)F)n(C)n2)c(C)cc1OCc1c(Cl)cccc1-n1nnn(C)c1=O [Present compound 195, 1-{3-chloro-2-[2,5-dimethyl-4-(1-methyl-5-trifluoromethyl-1H-pyrazol-3-yl)-phenoxymethyl]phenyl}-4-methyl-1,4-dihydrotetrazole-5-one]	≤ 30%	≤ 30%	–	–
COc1cccc(-n2nnn(C)c2=O)c1COc1cc(C)c(-c2cc(C(F)(F)F)n(C)n2)cc1C [Present compound 196, 1-{3-methoxy-2-[2,5-dimethyl-4-(1-methyl-5-trifluoromethyl-1H-pyrazol-3-yl)-phenoxymethyl]phenyl}-4-methyl-1,4-dihydrotetrazole-5-one]	≤ 30%	≤ 30%	–	–
Cc1cc(-c2nn(C)c(Cl)c2C)ccc1OCc1c(F)cccc1-n1nnn(C)c1=O [Present compound 204, 1-{3-fluoro-2-[2-methyl-4-(5-chloro-1,4-dimethyl-1H-pyrazol-3-yl)-phenoxymethyl]-phenyl}-4-methyl-1,4-dihydrotetrazole-5-one]	≤ 30%	≤ 30%	–	–
Cc1cc(-c2nn(C)c(Cl)c2C)ccc1OCc1c(Cl)cccc1-n1nnn(C)c1=O [Present compound 205, 1-{3-chloro-2-[2-methyl-4-(5-chloro-1,4-dimethyl-1H-pyrazol-3-yl)-phenoxymethyl]-phenyl}-4-methyl-1,4-dihydrotetrazole-5-one]	≤ 30%	≤ 30%	–	–
CCc1cccc(-n2nnn(C)c2=O)c1COc1ccc(-c2nn(C)c(Cl)c2C)cc1C [Present compound 206, 1-{3-ethyl-2-[2-methyl-4-(5-chloro-1,4-dimethyl-1H-pyrazol-3-yl)-phenoxymethyl]-phenyl}-4-methyl-1,4-dihydrotetrazole-5-one]	≤ 30%	≤ 30%	–	–
Cc1cc(-c2nn(C)c(Cl)c2C=O)ccc1OCc1c(C)cccc1-n1nnn(C)c1=O [Present compound 207, 1-{3-methyl-2-[2-methyl-4-(4-formyl-5-chloro-1-methyl-1H-pyrazol-3-yl)-phenoxymethyl]-phenyl}-4-methyl-1,4-dihydrotetrazole-5-one]	≤ 30%	≤ 30%	–	–
Cc1cc(-c2nn(C)c(Cl)c2C)ccc1OCc1c(Br)cccc1-n1nnn(C)c1=O [Present compound 208, 1-{3-bromo-2-[2-methyl-4-(5-chloro-1,4-dimethyl-1H-pyrazol-3-yl)-phenoxymethyl]-phenyl}-4-methyl-1,4-dihydrotetrazole-5-one]	≤ 30%	≤ 30%	–	–
Cc1cc(-c2nn(C)c(Cl)c2C)ccc1OCc1c(-n2nnn(C)c2=O)cccc1C(F)(F)F [Present compound 209, 1-{2-[2-methyl-4-(5-chloro-1,4-dimethyl-1H-pyrazol-3-yl)-phenoxymethyl]-3-trifluoromethyl-phenyl}-4-methyl-, 4-dihydrotetrazole-5-one]	≤ 30%	≤ 30%	–	–
CCOc1cccc(-n2nnn(C)c2=O)c1COc1ccc(-c2nn(C)c(Cl)c2C)cc1C [Present compound 210, 1-{3-ethoxy-2-[2-methyl-4-(5-chloro-1,4-dimethyl-1H-pyrazol-3-yl)-phenoxymethyl]-phenyl}-4-methyl-1,4-dihydrotetrazole-5-one]	≤ 30%	≤ 30%	–	–
COc1c(C)c(-c2ccc(OCc3c(C)cccc3-n3nnn(C)c3=O)c(C)c2)nn1C [Present compound 211, 1-{3-methyl-2-[2-methyl-4-(1,4-dimethyl-5-methoxy-1H-pyrazol-3-yl)-phenoxymethyl]-phenyl}-4-methyl-1,4-dihydrotetrazole-5-one]	≤ 30%	≤ 30%	–	–
